Assay results taken from patent US20140314790A1, “CASPASE 9 INHIBITION AND BRI2 PEPTIDES FOR TREATING DEMENTIA” (ALBERT EINSTEIN COLLEGE OF MEDICINE OF YESHIVA UNIVERSITY, priority 2011, published 2014).
No constants are given. Whether binding was seen depends on the method and setting. In cells and extracts the contact can be indirect. Some binding calls cover weakened binding; strength is not graded here.

By UniProt entry, the sequences of proteins in these tests, tags left out. Where a name states a change or a piece, a line headed by the entry shows the natural chain unless it says otherwise. Residues count along the entry.
UniProt P05067: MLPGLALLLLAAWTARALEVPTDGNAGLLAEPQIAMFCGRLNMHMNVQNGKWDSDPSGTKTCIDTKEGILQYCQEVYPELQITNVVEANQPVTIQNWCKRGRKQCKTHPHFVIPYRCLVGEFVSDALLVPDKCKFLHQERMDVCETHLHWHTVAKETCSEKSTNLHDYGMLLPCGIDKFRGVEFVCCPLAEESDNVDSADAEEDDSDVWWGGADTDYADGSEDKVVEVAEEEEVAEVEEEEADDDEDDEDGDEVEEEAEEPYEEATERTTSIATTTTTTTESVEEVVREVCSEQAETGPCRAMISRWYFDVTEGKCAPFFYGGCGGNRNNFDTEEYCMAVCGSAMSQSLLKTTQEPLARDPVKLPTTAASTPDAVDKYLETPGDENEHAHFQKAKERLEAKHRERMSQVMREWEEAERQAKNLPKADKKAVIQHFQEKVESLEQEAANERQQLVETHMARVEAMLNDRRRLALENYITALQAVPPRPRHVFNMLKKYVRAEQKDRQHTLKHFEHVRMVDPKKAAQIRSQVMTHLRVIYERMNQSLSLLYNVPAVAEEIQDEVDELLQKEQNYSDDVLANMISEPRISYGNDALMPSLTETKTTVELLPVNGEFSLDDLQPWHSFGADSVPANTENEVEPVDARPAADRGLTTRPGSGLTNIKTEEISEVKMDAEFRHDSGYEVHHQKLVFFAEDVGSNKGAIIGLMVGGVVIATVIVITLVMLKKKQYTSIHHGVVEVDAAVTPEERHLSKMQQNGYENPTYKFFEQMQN
amyloid precursor protein (APP), transfected into HeLa or HEK293 cells: residues 18-770 of P05067
β-CTF (C-terminal fragment of APP made by β-secretase cleavage): residues 672-770 of P05067

Key:
[1] = biological target: β-CTF (C-terminal fragment of APP made by β-secretase cleavage) (UniProt P05067); experiment: α-myc co-immunoprecipitation from co-transfected HeLa cells, Western blot
[2] = biological target: amyloid precursor protein (APP), transfected into HeLa or HEK293 cells (UniProt P05067); experiment: as above

binding [1]: binds
binding [2]: binds
Substance: BRI2 (myc-tagged BRI2 constructs, full length and fragments progressively deleted from the COOH-terminus) (from UniProt A5A6H8 1-266)
